IC50 data for one molecule are collected here from US20250127753A1, “PHARMACEUTICAL APPLICATION OF DIMYRICETIN-YL-DISELENIDE IN TUMORS” (Shanghai Spark Pharmaceutical Co., Ltd., priority 2023, published 2025).

The test has as its system SK-OV-3. The test can be described thus: In vitro cell viability (CTG), SK-OV-3. Type of test: cell-based, Human. Particulars: SK-OV-3 cells, 72 hours, CTG assay. How it is done:
Collect cells in the exponential growth phase and count viable cells separately using a cell counter. Adjust the cell suspension to an appropriate concentration with the corresponding culture medium. Add 90 μL of the cell suspension to each well of a 96-well cell culture plate, with 3 replicate wells containing 5000 cells/well. Place the plate in an incubator at 37° C. with 5% CO2 overnight.
On the second day, add 10 μL of dimyricetin diselenide and cisplatin to the corresponding wells. The highest final concentration of dimyricetin diselenide is 300 μg/ml (i.e., 379 μM), and the highest final concentration of cisplatin is 300 μM. A total of 9 concentrations are prepared with a 3-fold dilution.
After 72 hours, detect cell viability using the CTG assay.
Using GraphPad Prism 8.0 software, an S-shaped dose-survival curve was plotted with log (inhibitor) as the x-axis and response as the y-axis, adopting the Variable slope (four parameters) model to calculate the IC50 value.

In turn, `N.N.[Cl][Pt][Cl]` [Cisplatin, reference compound] registered an IC50 of 18 µM.
